Taken from: PubChem BioAssay AID652272 (Drosophila RNAi Screening Center, 2013)

- Aim: 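Finding fly genes that regulate Hedgehog signal transduction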 (primary screen)
- System: Drosophila clone 8 (Cl8) cells
- Knock-down reagent: long dsRNA against Drosophila genes
- Read-out: 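Firefly light from a Hedgehog-responsive ptc promoter reporter and Renilla reference light, both read on a plate reader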
- Reading the numbers: firefly Hh reporter signal: higher = more ptc reporter light; Renilla reference signal: higher = more Renilla control light
- Active means: 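Called a hit if the two-replicate mean z-score lies below -2 or above +3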
- Calls: active = hit: reporter lowered or raised; inactive = not a hit
The deposit covers about 21,000 reagents; this is an unselected part of those with a known target gene and a result. In the full data, 503 (2.4%) were called active. 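Raw plate light values, not normalised; calls rest on replicate z-scores that were not deposited; hits include reporter decreases as well as increases.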 Names joined by + are all predicted targets of the reagent. Not given: the amount of reagent, the time to read-out.

| predicted target | amplicon | firefly Hh reporter signal, replicate 1 | firefly Hh reporter signal, replicate 2 | firefly Hh reporter signal, replicate 3 | Renilla reference signal, replicate 1 | Renilla reference signal, replicate 2 | activity call |
| --- | --- | --- | --- | --- | --- | --- | --- |
| CG6845 | DRSC08576 | 1.01e5 | 60421 | – | 4263 | 2611 | inactive |
| CheB74a | DRSC09503 | 2.34e5 | – | – | 4982 | – | inactive |
| Drep2 | DRSC07528 | 1.03e5 | 64610 | – | 3850 | 2394 | inactive |
| CG9452 | DRSC11075 | 1.12e5 | 87650 | – | 3949 | 2448 | inactive |
| Chc | DRSC20229 | 89947 | 78861 | – | 2393 | 2050 | inactive |
| Spec2 (retired record) | DRSC12258 | 61911 | 1.13e5 | – | 2448 | 3091 | inactive |
| CG33233 | DRSC08239 | 74481 | 51632 | – | 2342 | 4151 | inactive |
| mgr | DRSC16099 | 55248 | 84752 | – | 1346 | 2394 | inactive |
| CG14968 | DRSC08427 | 1.37e5 | 57072 | – | 5360 | 3829 | inactive |
| Mink | DRSC14291 | 75664 | 79121 | – | 2893 | 2757 | inactive |
| HLH54F | DRSC07438 | 82077 | 51188 | – | 2666 | 3526 | inactive |
| primo-2 + primo-1 | DRSC16511 | 1.13e5 | 1.34e5 | – | 2807 | 3672 | inactive |
| CG7298 | DRSC10802 | 66944 | 76704 | – | 2982 | 3109 | inactive |
| ome | DRSC09322 | 2.31e5 | – | – | 4827 | – | inactive |
| ome | DRSC10282 | 1.01e5 | – | – | 2651 | 2825 | inactive |
| ome | DRSC11380 | 71648 | – | – | 3532 | 2010 | inactive |
| PCNA | DRSC07653 | 1.17e5 | 66104 | – | 5447 | 2765 | inactive |
| CG8664 | DRSC20116 | 88461 | 2.10e5 | – | 3035 | 8576 | inactive |
| Jon44E | DRSC07216 | 62321 | 40033 | – | 1388 | 3216 | inactive |
| Peritrophin-15a | DRSC02636 | 1.19e5 | 68614 | – | 3020 | 7156 | inactive |
| CG1690 | DRSC06636 | 1.45e5 | 57696 | – | 2962 | 434 | inactive |
| Cpsf6 | DRSC10781 | 41212 | 60653 | – | 2614 | 3222 | inactive |
| PNPase | DRSC14304 | 1.13e5 | 89350 | – | 2256 | 2353 | inactive |
| CG10887 | DRSC14277 | 8.16e5 | 2.02e5 | – | 41206 | 5925 | inactive |
| Atg14 | DRSC14421 | 84183 | 66120 | – | 1724 | 1936 | inactive |
| CG4537 | DRSC02756 | 1.17e5 | 72036 | – | 2801 | 7072 | inactive |
| CG15118 | DRSC06540 | 1.26e5 | 1.14e5 | – | 5244 | 4304 | inactive |
| Mgat1 | DRSC07463 | 79702 | 35315 | – | 2448 | 2787 | inactive |
| RpL36 | DRSC18708 | 20856 | 47337 | – | 1683 | 4379 | active |
| CG12118 | DRSC17813 | 93653 | 71824 | – | 2247 | 1978 | inactive |
| pch2 | DRSC14368 | 54436 | 80624 | – | 1830 | 2180 | inactive |
| RunxB | DRSC20395 | 7.00e5 | 2.84e5 | – | 42679 | 6933 | inactive |
| RunxB | DRSC20525 | 81000 | 2.25e5 | – | 3033 | 7697 | inactive |
| RunxB | DRSC20526 | 48997 | 34552 | – | 1914 | 1946 | inactive |
| CASK | DRSC14588 | 6.05e5 | 6.36e5 | 1.59e5 | 29461 | 4007 | inactive |
| CASK | DRSC16597 | 6.41e5 | 1.85e5 | – | 29848 | 3908 | inactive |
| CASK | DRSC16598 | 7.94e5 | 1.66e5 | – | 41527 | 3122 | inactive |
| kipf | DRSC15446 | 1.37e5 | 4.23e5 | 1.76e5 | 4599 | 3161 | inactive |
| CG16798 | DRSC02517 | 1.02e5 | 53842 | – | 2848 | 5257 | inactive |
| Pstk + Tim9b | DRSC19504 | 1.20e5 | 1.05e5 | – | 2692 | 2664 | inactive |
| Pstk + Tim9b | DRSC20292 | 99212 | 2.25e5 | – | 2874 | 9312 | inactive |
| Orct2 | DRSC14613 | 82346 | 67762 | – | 3617 | 3005 | inactive |
| CG31659 | DRSC00760 | 1.19e5 | 87256 | – | 2580 | 2324 | inactive |
| CG17377 | DRSC00950 | 8.05e5 | 8.73e5 | 3.58e5 | 38992 | 5480 | inactive |
| CG17377 | DRSC02615 | 97962 | 1.52e5 | – | 4316 | 5945 | inactive |
| CG2993 | DRSC14284 | 73418 | 95072 | – | 2832 | 3056 | inactive |
| CG2993 | DRSC15457 | 1.29e5 | 92000 | – | 4730 | 3922 | inactive |
| CG15082 | DRSC06513 | 1.06e5 | 50460 | – | 2348 | 2444 | inactive |
| Sec16 | DRSC19788 | 92134 | 3.90e5 | – | 3149 | 13241 | inactive |
| Sec16 | DRSC19858 | 1.65e5 | 3.98e5 | – | 5844 | 14122 | inactive |
| CG15019 | DRSC08473 | 45307 | 39143 | – | 4697 | 3672 | inactive |
| Tsp5D | DRSC18380 | 92989 | 2.33e5 | – | 2498 | 9611 | inactive |
| CG17601 | DRSC20639 | 66150 | 2.05e5 | – | 2232 | 8678 | inactive |
| Lsm10 | DRSC06250 | 73393 | 48960 | – | 1600 | 3622 | inactive |
| Cyp4d21 | DRSC03305 | 76579 | 64504 | – | 3120 | 2757 | inactive |
| Mkk4 | DRSC16739 | 91056 | 91344 | – | 3984 | 3013 | inactive |
| CG11149 | DRSC02130 | 88058 | 56208 | – | 2285 | 4757 | inactive |

Copied from the list:
Under “Renilla reference signal, replicate 1”, CG7298 [DRSC10802] shows 2982
For “Renilla reference signal, replicate 1”, RpL36 [DRSC18708] reads 1683
Entry for Atg14 [DRSC14421] in “Renilla reference signal, replicate 2”: 1936
Entry for CG15019 [DRSC08473] in “Renilla reference signal, replicate 2”: 3672
Under “activity call”, Sec16 [DRSC19858] has inactive
For “Renilla reference signal, replicate 2”, Jon44E [DRSC07216] shows 3216
